The test concerns the target T1, FLAG-ARD1 (human) (UniProt P41227).
T1 sequence: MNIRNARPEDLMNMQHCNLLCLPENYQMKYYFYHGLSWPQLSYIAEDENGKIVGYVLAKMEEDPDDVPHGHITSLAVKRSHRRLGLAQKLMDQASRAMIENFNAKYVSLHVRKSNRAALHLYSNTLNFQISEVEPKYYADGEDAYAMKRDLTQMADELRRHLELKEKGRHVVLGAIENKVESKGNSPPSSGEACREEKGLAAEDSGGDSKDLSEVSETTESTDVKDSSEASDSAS
As to the kind of experiment: co-IP; FLAG-ARD1 precipitated from HEK293T cells; co-precipitation of Myc-Hsp70 or Myc-Hsc70 by western blotting.

By UniProt entry, the sequences of proteins in these tests, tags left out.
UniProt P11142: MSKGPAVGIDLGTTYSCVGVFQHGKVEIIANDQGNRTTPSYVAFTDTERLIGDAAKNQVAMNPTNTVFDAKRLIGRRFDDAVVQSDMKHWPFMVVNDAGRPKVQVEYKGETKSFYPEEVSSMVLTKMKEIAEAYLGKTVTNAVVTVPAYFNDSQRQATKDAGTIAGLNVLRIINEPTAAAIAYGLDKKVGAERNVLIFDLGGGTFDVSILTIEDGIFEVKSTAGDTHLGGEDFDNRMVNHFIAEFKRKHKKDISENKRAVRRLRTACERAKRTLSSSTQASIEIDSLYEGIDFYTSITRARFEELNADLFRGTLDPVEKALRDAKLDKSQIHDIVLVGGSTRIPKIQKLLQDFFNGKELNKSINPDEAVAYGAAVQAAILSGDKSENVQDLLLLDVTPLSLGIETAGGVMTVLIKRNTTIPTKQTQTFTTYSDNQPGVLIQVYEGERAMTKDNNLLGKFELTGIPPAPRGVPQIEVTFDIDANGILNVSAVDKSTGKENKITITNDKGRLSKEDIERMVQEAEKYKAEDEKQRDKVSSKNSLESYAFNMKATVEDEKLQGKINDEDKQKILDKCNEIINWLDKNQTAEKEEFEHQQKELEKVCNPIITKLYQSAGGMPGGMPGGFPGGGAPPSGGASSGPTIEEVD

These are yes or no findings as the source states them, for the method shown. In cells and extracts the contact can be indirect. Tags and fused reporters may be left off the sequences shown.

With Myc-Hsc70 (from UniProt P11142 1-646), the binding result is reported as “no binding”.

These data come from paper PMC5059642.
